The nature of the experiment: qHTS Assay to Find Inhibitors of Chronic Active B-Cell Receptor Signaling. The following applies: ABC-DLBCL IkBa-CBG/CBR reporter, luminescence ratio (green luciferase fused to IkBa over red control in TMD8 lymphoma cells), 4 h. Summed up:
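TMD8 ABC-DLBCL cells carrying doxycycline-inducible green luciferase fused to IkappaBalpha plus unfused red luciferase were exposed to compounds (up to 46 uM) for 4 hrs at 37C. Activity came from the overlap-corrected green/red luminescence ratio.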

Setting [1] is: measured here: CBR red luminescence, cell number.

In PubChem BioAssay AID493014 (National Center for Advancing Translational Sciences (NCATS), 2011) one finds AC50 data, which are given here for 68 compounds.

This is one part of the list. Shown are side measurements of this screen, not its main read-out; they come without a call. Compounds called inactive in the main read-out are mostly missing here. The note in brackets gives the kind of curve behind each potency; many fits are weak.

For `Cc1ccnc(NC(=O)c2ccccc2NC(=O)c2ccccc2)c1`, the AC50 (as a rule, the midpoint of the concentration-response curve, whichever way the signal moves) under setting [1] is 12.6 µM [rising, partial curve, poor fit].

As for `Cc1ccsc1/C=N/Nc1ccc(F)cc1F`, the AC50 under setting [1] was 28.2 µM [rising, single point].

Consider `CN(c1ccccc1)S(=O)(=O)c1cccc(NC(=O)c2ccc3ncsc3c2)c1`, for which the AC50 under setting [1] was 17.8 µM [falling, partial curve, poor fit].

With `N#Cc1ccccc1OCC(=O)N1CCN(C(=O)c2ccco2)CC1`, the AC50 under setting [1] was 3.98 µM [falling, full curve, poor fit].

Turning to `Cn1c(=O)c2c(nc(N/N=C/c3ccncc3)n2Cc2ccccc2)n(C)c1=O`, the AC50 under setting [1] was 6.31 µM [falling, partial curve, poor fit].

Take `CC1CN(c2nn3c(=O)c4ccccc4nc3c3ccccc23)CC(C)O1` (centres undefined): under setting [1], the AC50 is 3.66 µM [falling, partial curve, poor fit].

On to `COc1cccc(/C=C/C(=O)OCC(=O)c2ccc3c(c2)NC(=O)CO3)c1`, for which the AC50 under setting [1] is 6.51 µM [rising, single point].

Take `CC(C)c1nnc(NC(=O)C2CCCO2)s1` (centres undefined): the AC50 under setting [1] was 12.6 µM [rising, single point].

Regarding `COc1ccc(N2CCN(C(=O)C34CCC(C)(C(=O)C3)C4(C)C)CC2)cc1` (centres undefined), under setting [1], the AC50 was 29.1 µM [rising, single point].

Turning to `NC(=O)c1ccsc1NC(=O)COC(=O)Cc1ccccc1Cl`, under setting [1], the AC50 is 23.1 µM [falling, partial curve].

In the case of `CCOc1ccc(NS(=O)(=O)c2ccc(NS(=O)(=O)c3cccs3)cc2)cc1`, under setting [1], the AC50 is 7.08 µM [falling, partial curve, poor fit].

For `COc1cccc(C2=CC(c3ccc(OC)c(OC)c3OC)n3nnnc3N2)c1` (centres undefined), under setting [1], the AC50 was 29.1 µM [falling, single point].

`COc1ccc(C(=O)COC(=O)c2cccnc2Cl)c(OC)c1`: the half-maximal activity concentration (AC50) under setting [1] is 31.6 µM [falling, single point].

`O=C(c1ccc(Cl)cc1)c1cnc(-c2ccc(Cl)cc2)s1`: the AC50 under setting [1] was 0.398 µM [falling, partial curve, poor fit].

For `O=C(c1ccc(COc2ccccc2Br)cc1)N1CCCCCC1`, the AC50 under setting [1] was 12.6 µM [falling, partial curve, poor fit].

For `Cc1cc(C)c(C#N)c(SCc2ccccc2)n1`, the half-maximal activity concentration (AC50) under setting [1] is 23.1 µM [rising, single point].

Turning to `CC1(C)CC(=O)/C(=C\c2cccc([N+](=O)[O-])c2)C(C)(C)N1`, the AC50 under setting [1] is 13 µM [falling, partial curve].

In the case of `Cc1cc(C)n2nc(SCCCC(=O)c3ccccc3)nc2n1`, the AC50 under setting [1] was 14.1 µM [rising, single point].

As to `Cc1ccc(NC(=S)NC(NC(=O)c2ccco2)C(Cl)(Cl)Cl)cc1` (centres undefined), the AC50 under setting [1] was 20.6 µM [falling, partial curve, poor fit].

For the compound `Cc1cnc(C(=O)Nc2ccccc2-c2ccc(C)o2)cn1`, under setting [1], the AC50 was 10.3 µM [falling, single point].

`Cn1cccc1CC(=O)N/N=C/c1ccc(Cl)cc1`: the AC50 under setting [1] was 35.5 µM [falling, single point].

As to `Cc1cc(Nc2ccc(Br)cc2)n2nc(C)nc2n1`, under setting [1], the AC50 was 20.6 µM [falling, single point].

On to `O=C(COc1ccc2c(c1)CCC2)N1CCN(c2ccccc2F)CC1`, for which the AC50 under setting [1] was 0.0731 µM [rising, full curve, poor fit].

Turning to `COc1cc(C=O)ccc1OCCSc1ccc(C)cc1`, the AC50 under setting [1] was 5.8 µM [rising, full curve].

`CC(C)N(c1ccccc1)c1ccc(NC(=O)CCl)cc1`: under setting [1], the AC50 was 3.55 µM [falling, full curve].

Consider `Cc1nn2c([nH]c(=O)c3ccccc32)c1C=O`, for which, under setting [1], the AC50 was 1.12 µM [falling, full curve, poor fit].

`Cc1ccc(/C=C(\C#N)C(=O)Nc2ccccn2)o1`: the AC50 under setting [1] is 5.01 µM [falling, full curve].

Take `CCN(CC)CCNC(=O)c1ccc(NC(=O)c2cccc(S(=O)(=O)N3c4ccccc4CC3C)c2)cc1` (centres undefined): the AC50 under setting [1] was 3.55 µM [falling, partial curve].

In the case of `Cc1c(Cl)cnc(NC(=O)COC(=O)[C@@H](NC(=O)c2ccco2)C(C)C)c1Cl`, under setting [1], the AC50 is 0.164 µM [rising, full curve, poor fit].

Consider `COc1c(Cl)cccc1-c1cn2ccccc2n1`, for which the AC50 under setting [1] was 0.631 µM [rising, partial curve, poor fit].

Take `COc1cccc(NC(=O)C2CC(=O)N(Cc3ccc(C)cc3)C2)c1` (centres undefined): under setting [1], the AC50 was 8.91 µM [falling, partial curve, poor fit].

On to `Cc1cccc(-n2c(C)cc(C=C3C(=O)c4ccccc4C3=O)c2C)c1`, for which, under setting [1], the AC50 was 3.16 µM [rising, partial curve, poor fit].

In the case of `CC(=O)N(O)CCCCCNC(=O)CCC(=O)N(O)CCCCCNC(=O)CCC(=O)N(O)CCCCCNC(=O)CCC(=O)O`, the AC50 under setting [1] was 6.51 µM [rising, single point].

Regarding `Cc1ccc(F)cc1NC(=O)C1CCN(c2cnccn2)CC1`, the AC50 under setting [1] is 3.55 µM [rising, partial curve, poor fit].

Regarding `COc1ccccc1CCNC(=O)CSc1nnc2ccc(-c3ccncc3)nn12`, the AC50 under setting [1] is 12.6 µM [rising, partial curve, poor fit].

Take `CCC(C(=O)Nc1ccsc1C(=O)OC)c1ccccc1` (centres undefined): under setting [1], the AC50 was 12.6 µM [rising, single point].

`CC(C)Sc1nnc(NC(=O)CCc2ccccc2)s1`: the AC50 under setting [1] was 2.82 µM [rising, full curve, poor fit].

In the case of `CCC(CC)C(=O)c1c[nH]c(C(=O)NC2CCCCCC2)c1`, the AC50 under setting [1] is 11.2 µM [rising, partial curve, poor fit].

`Nc1c(S(=O)(=O)c2cccs2)c2nc3ccccc3nc2n1Cc1cccs1`: the AC50 under setting [1] is 3.98 µM [falling, partial curve, poor fit].

As for `Fc1ccc(NC(=S)N/N=C/c2ccc(F)c(F)c2)c(F)c1`, the AC50 under setting [1] is 0.326 µM [falling, full curve].

On to `O=C(Nc1ccc(OC(F)(F)F)cc1)c1cnccn1`, for which the AC50 under setting [1] was 11.2 µM [falling, single point].

Take `COCCNc1ncnc2c1cnn2-c1ccc(Cl)cc1`: the AC50 under setting [1] is 14.1 µM [falling, single point].

In the case of `CCOC(=O)c1sc(NC(=O)c2ccc(C)o2)nc1C`, under setting [1], the AC50 was 0.224 µM [falling, full curve].

For `O=C(NCc1ccccc1)C1CCCC1`, the AC50 under setting [1] was 5.62 µM [falling, single point].

With `CC(C)CC(NC(=O)c1cccs1)c1nnc(SCc2ccc(Cl)c(Cl)c2)n1C` (centres undefined), under setting [1], the AC50 is 20.6 µM [falling, partial curve].

Take `NC(=O)c1ccsc1NC(=O)c1ccc(N2CCCC2=O)cc1`: the AC50 under setting [1] is 12.6 µM [falling, partial curve].

As to `CCNC(=S)N/N=C/c1sccc1C`, the AC50 runs as follows: under setting [1], 35.5 µM [rising, single point]; (measured here: IkBa-CBG green luminescence) 3.98 µM [falling, full curve].

On to `CC1=NN(S(=O)(=O)c2ccc(C)cc2)C(=O)c2ccccc2O1`, for which the AC50 under setting [1] was 22.4 µM [rising, single point].

As for `Cn1cccc1CC(=O)NNC(=O)Nc1ccc(Cl)cc1`, the AC50 under setting [1] is 5.8 µM [rising, full curve, poor fit].

As to `CCc1nc(NC(C)C)c2oc3ccccc3c2n1`, the AC50 under setting [1] was 2.51 µM [falling, partial curve, poor fit].

As to `COc1ccc(/C=N/NC(=O)c2ccoc2C)cc1CN1CCN(c2ccc(F)cc2)CC1`, the AC50 under setting [1] was 20 µM [falling, single point].

As to `CCCCCCCCCC(=O)Nc1cccnc1`, the AC50 under setting [1] was 3.16 µM [rising, single point].

Regarding `COc1ccccc1NC(=O)Nc1ccc(CC#N)cc1`, the AC50 under setting [1] was 0.316 µM [falling, full curve, poor fit].

As for `Cn1ccnc1SCC(=O)c1cccc(Br)c1`, under setting [1], the AC50 was 6.51 µM [rising, single point].

With `CC(=O)Nc1ccc2c(c1)C(=O)N(C1CCCCC1)C2=O`, the AC50 under setting [1] was 0.291 µM [rising, full curve, poor fit].

Take `Cc1ccc(C(=O)C(C)OC(=O)CNS(=O)(=O)c2ccc(C)cc2)cc1` (centres undefined): the AC50 under setting [1] was 29.1 µM [rising, single point].

In the case of `Cc1cccc(/C=N/Nc2nncc3ccccc23)c1`, the AC50 under setting [1] was 7.08 µM [falling, partial curve, poor fit].

In the case of `O=C(Cc1cc(=O)oc2cc(O)ccc12)NCC1CCC(C(=O)O)CC1` (centres undefined), the AC50 under setting [1] was 35.5 µM [rising, single point].

`O=C(N/N=C/C(Br)=C/c1ccccc1)c1cccnc1`: the AC50 under setting [1] is 35.5 µM [falling, single point].

In the case of `CC1(C)Cc2c(sc3[nH]c(=S)[nH]c(=O)c23)CO1`, the AC50 under setting [1] is 22.4 µM [falling, partial curve].

Turning to `Cc1ccc(C(=O)OCc2nnc(-c3ccccc3)o2)o1`, the AC50 under setting [1] was 3.26 µM [rising, partial curve, poor fit].

Take `S=C(NN=C(C1CC1)C1CC1)Nc1ccccc1`: the AC50 under setting [1] is 23.1 µM [falling, single point].

On to `O=C(NNC(=S)Nc1ccc(Cl)cc1)c1ccccc1`, for which, under setting [1], the AC50 was 10 µM [falling, partial curve].

On to `O=C(Nc1ccccc1)OC1CCCCc2cccnc21` (centres undefined), for which, under setting [1], the AC50 was 1.41 µM [rising, partial curve].

`Cc1cc(NC(=O)CSc2nc3cc(C)c(C)cc3cc2C)no1`: the AC50 under setting [1] is 4.47 µM [rising, single point].

On to `CC(=O)Nc1ccc(Nc2nc(C)nc3c2oc2ccccc23)cc1`, for which, under setting [1], the AC50 was 16.4 µM [rising, single point].

As to `N#CC(c1ccc(F)cc1)c1ccc(C(=O)c2ccccc2)cc1` (centres undefined), the AC50 under setting [1] is 0.0291 µM [rising, full curve, poor fit].

In the case of `COc1ccc(C(=O)NNC(=O)c2cc3cccc(OC)c3oc2=O)cc1`, under setting [1], the AC50 was 2.24 µM [falling, full curve, poor fit].
